{
  "source": "PubChem BioAssay AID330",
  "about": "(DTP/NCI, 2004)",
  "tested_on": "P388 leukemia ip, CD2F1 mice, survival T/C",
  "assay": "NCI In Vivo Anticancer Drug Screen. Data for tumor model P388 Leukemia (intraperitoneal) in CD2F1 (CDF1) mice",
  "conditions": "T/C endpoint: median survival time, higher T/C = longer survival",
  "key": {"[1]": {"conditions": "dose: 200.0 mg/kg/injection, schedule: Q01DX009 (ip), vehicle: saline with Tween-80"}, "[2]": {"conditions": "dose: 25.0 mg/kg/injection, schedule: Q01DX009 (ip), vehicle: saline with Tween-80"}, "[3]": {"conditions": "dose: 100.0 mg/kg/injection, schedule: Q01DX009 (ip), vehicle: saline with Tween-80"}, "[4]": {"conditions": "dose: 100.0 mg/kg/injection, schedule: Q01DX005 (ip), vehicle: saline with Tween-80"}, "[5]": {"conditions": "dose: 200.0 mg/kg/injection, schedule: Q01DX005 (ip), vehicle: saline with Tween-80"}},
  "note": "The list shows only some results of the screen, not a fair sample: it is rich in T/C values a quarter to a half above the control, in often repeated tests (any T/C) and in doses without a T/C. Further doses and runs are listed elsewhere. T/C is the treated group as % of the vehicle group. Some doses have a count of surviving animals in place of a T/C: the source files T/C as zero there, which appears to mark a toxic dose or a test without result, not a measured value. Some doses without a T/C left all or most animals alive at the check, yet need not have been tolerated: survival well below the control is almost never listed, so the zero probably covers shortened survival too. Survivors were counted at the toxicity check, usually on the fifth day, unless a day is given; later deaths do not show. Schedule codes are those of the source, taken here to give the interval after Q, in days (D) or hours (H), and the number of doses after X. Additions like (4×) count equal records among those shown. Some entries were tested several times; the results are listed from low to high. Where survival is the endpoint, the PubChem record calls one and a half times the control and up active, and a quarter to a half above the control has no call in these data; cut-offs in other NCI protocols can differ. Some T/C values are followed by the survivors on the day toxicity was checked, most often the fifth; without a count, all were alive then.",
  "data": [
    {"compound": "CCSC1C(=O)N(C)C(SCC)C(=O)N1C", "note": "(stereo unspecified)", "values": [
      {"measurement": "survivor count", "setting": "dose: 100.0 mg/kg/injection, schedule: Q01DX009 (ip), vehicle: saline", "value": "5 of 6"},
      {"measurement": "survivor count", "setting": "dose: 200.0 mg/kg/injection, schedule: Q01DX009 (ip), vehicle: saline", "value": "6 of 6"}
    ]},
    {"compound": "CCOC(=O)N1Cc2cc3ncccc3nc2C1", "values": [
      {"measurement": "survivor count", "setting": "dose: 100.0 mg/kg/injection, schedule: Q01DX005 (ip), vehicle: Klucel (hydroxypropylcellulose) (HPC)", "value": "6 of 6"}
    ]},
    {"compound": "CC1SC(c2ccc(Cl)cc2)N2C(=O)C(C)SC(c3ccc(Cl)cc3)N2C1=O", "note": "(stereo unspecified)", "values": [
      {"measurement": "survivor count", "setting": "[1]", "value": "6 of 6"}
    ]},
    {"compound": "CCCCCCCCCCCCS(=O)(=O)O", "values": [
      {"measurement": "T/C", "setting": "[2]", "value": "126 % of control [5 of 6 alive]"},
      {"measurement": "survivor count", "setting": "[2]", "value": "5 of 6"},
      {"measurement": "survivor count", "setting": "dose: 50.0 mg/kg/injection, schedule: Q01DX009 (ip), vehicle: saline with Tween-80", "value": "5 of 6 (2×)"}
    ]},
    {"compound": "Clc1ccc(C(CCOc2ccccc2Br)Cn2ccnc2)c(Cl)c1", "note": "(stereo unspecified)", "values": [
      {"measurement": "survivor count", "setting": "[3]", "value": "2 of 6 and 3 of 6"},
      {"measurement": "survivor count", "setting": "[1]", "value": "3 of 6"}
    ]},
    {"compound": "C=C1C(=O)O[C@@H]2C[C@@]3(C)CCC[C@H](C)C3=C[C@H]12", "values": [
      {"measurement": "survivor count", "setting": "dose: 400.0 mg/kg/injection, schedule: Q01DX009 (ip), vehicle: saline with Tween-80", "value": "1 of 6"}
    ]},
    {"compound": "Nc1[nH]c(=O)ncc1-c1ccc([N+](=O)[O-])cc1", "values": [
      {"measurement": "survivor count", "setting": "[4]", "value": "0 of 5"},
      {"measurement": "survivor count", "setting": "[5]", "value": "0 of 5"}
    ]},
    {"compound": "CCOC(=O)C(Cc1c[nH]c2ccccc12)NC(=O)C1(O)C(O)C2(CC)C=CCN3CCC4(c5cc(C6(C(=O)OC)CC7CC(CC)CN(CCc8c6[nH]c6ccccc86)C7)c(OC)cc5N(C)C14)C32", "note": "(stereo unspecified)", "values": [
      {"measurement": "T/C", "setting": "dose: 2.0 mg/kg/injection, schedule: Q01DX001 (ip), vehicle: saline", "value": "125 % of control"},
      {"measurement": "T/C", "setting": "dose: 4.0 mg/kg/injection, schedule: Q01DX001 (ip), vehicle: saline", "value": "138 % of control"},
      {"measurement": "T/C", "setting": "dose: 8.0 mg/kg/injection, schedule: Q01DX001 (ip), vehicle: saline", "value": "126 and 149 % of control"},
      {"measurement": "T/C", "setting": "dose: 16.0 mg/kg/injection, schedule: Q01DX001 (ip), vehicle: saline", "value": "131 % of control"},
      {"measurement": "T/C", "setting": "dose: 32.0 mg/kg/injection, schedule: Q01DX001 (ip), vehicle: saline", "value": "142 % of control"},
      {"measurement": "survivor count", "setting": "dose: 64.0 mg/kg/injection, schedule: Q01DX001 (ip), vehicle: saline", "value": "2 of 6"}
    ]},
    {"compound": "O=C1OC2(CCCCC2)OC(=O)C1=C/C=C/c1ccc([N+](=O)[O-])o1", "values": [
      {"measurement": "survivor count", "setting": "[3]", "value": "6 of 6"},
      {"measurement": "survivor count", "setting": "[1]", "value": "4 of 6"}
    ]},
    {"compound": "O=C(O)c1ccc(O)c(C(=O)O)c1", "values": [
      {"measurement": "survivor count", "setting": "[1]", "value": "1 of 6"}
    ]},
    {"compound": "CC(NNC(=S)NCc1ccccc1)c1cc2ccccc2cn1", "note": "(stereo unspecified)", "values": [
      {"measurement": "T/C", "setting": "[4]", "value": "131 % of control"},
      {"measurement": "T/C", "setting": "[5]", "value": "135 % of control"},
      {"measurement": "survivor count", "setting": "dose: 400.0 mg/kg/injection, schedule: Q01DX005 (ip), vehicle: saline with Tween-80", "value": "1 of 6"}
    ]},
    {"compound": "CCC/C(=N\\NC(N)=Nc1ccc(Cl)cc1)c1ccc(Cl)cc1", "values": [
      {"measurement": "survivor count", "setting": "dose: 200.0 mg/kg/injection, schedule: Q04DX002 (ip), vehicle: saline with Tween-80", "value": "1 of 6"},
      {"measurement": "survivor count", "setting": "dose: 400.0 mg/kg/injection, schedule: Q04DX002 (ip), vehicle: saline with Tween-80", "value": "1 of 6"}
    ]},
    {"compound": "Cc1cc(=O)n2c(n1)Nc1ccc(Cl)cc1C2", "values": [
      {"measurement": "survivor count", "setting": "[1]", "value": "6 of 6"}
    ]},
    {"compound": "Nc1c2cc3c(cc2c[n+]2ccc4ccccc4c12)OCO3", "values": [
      {"measurement": "T/C", "setting": "dose: 50.0 mg/kg/injection, schedule: Q04DX003 (ip), vehicle: distilled water + Tween-80", "value": "93 [5 of 6 alive], 100, 111 [5 of 6 alive], 118 % of control"},
      {"measurement": "survivor count", "setting": "dose: 100.0 mg/kg/injection, schedule: Q04DX003 (ip), vehicle: distilled water + Tween-80", "value": "0 of 6, 1 of 6, 5 of 6"},
      {"measurement": "survivor count", "setting": "dose: 200.0 mg/kg/injection, schedule: Q04DX003 (ip), vehicle: distilled water + Tween-80", "value": "0 of 6"},
      {"measurement": "survivor count", "setting": "dose: 400.0 mg/kg/injection, schedule: Q04DX003 (ip), vehicle: distilled water + Tween-80", "value": "0 of 6"}
    ]}
  ]
}
